# According to the supplement of paper PMC7666118:
# Amino acid sequences for entries named in this document (tags omitted). A change or cut given only in a name is not applied to a line headed by its entry.
# UniProt Q08623: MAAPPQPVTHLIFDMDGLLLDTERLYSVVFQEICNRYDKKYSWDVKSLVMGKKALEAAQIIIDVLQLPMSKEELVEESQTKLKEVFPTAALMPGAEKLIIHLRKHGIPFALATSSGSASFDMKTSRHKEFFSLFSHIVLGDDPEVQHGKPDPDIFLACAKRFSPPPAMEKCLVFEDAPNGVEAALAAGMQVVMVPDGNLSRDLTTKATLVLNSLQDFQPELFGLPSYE
# UniProt O00165, whole entry: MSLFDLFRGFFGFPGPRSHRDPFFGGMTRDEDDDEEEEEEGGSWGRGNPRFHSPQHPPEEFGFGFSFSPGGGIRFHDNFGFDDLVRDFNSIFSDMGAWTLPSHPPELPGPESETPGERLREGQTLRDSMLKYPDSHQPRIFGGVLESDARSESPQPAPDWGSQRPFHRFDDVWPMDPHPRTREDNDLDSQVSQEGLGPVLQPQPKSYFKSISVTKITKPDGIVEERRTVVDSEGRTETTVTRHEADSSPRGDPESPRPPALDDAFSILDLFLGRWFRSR
# UniProt P52657, whole entry: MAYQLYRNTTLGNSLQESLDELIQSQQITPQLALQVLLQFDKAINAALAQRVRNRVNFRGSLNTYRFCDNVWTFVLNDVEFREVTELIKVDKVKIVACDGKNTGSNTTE
# UniProt Q5T447: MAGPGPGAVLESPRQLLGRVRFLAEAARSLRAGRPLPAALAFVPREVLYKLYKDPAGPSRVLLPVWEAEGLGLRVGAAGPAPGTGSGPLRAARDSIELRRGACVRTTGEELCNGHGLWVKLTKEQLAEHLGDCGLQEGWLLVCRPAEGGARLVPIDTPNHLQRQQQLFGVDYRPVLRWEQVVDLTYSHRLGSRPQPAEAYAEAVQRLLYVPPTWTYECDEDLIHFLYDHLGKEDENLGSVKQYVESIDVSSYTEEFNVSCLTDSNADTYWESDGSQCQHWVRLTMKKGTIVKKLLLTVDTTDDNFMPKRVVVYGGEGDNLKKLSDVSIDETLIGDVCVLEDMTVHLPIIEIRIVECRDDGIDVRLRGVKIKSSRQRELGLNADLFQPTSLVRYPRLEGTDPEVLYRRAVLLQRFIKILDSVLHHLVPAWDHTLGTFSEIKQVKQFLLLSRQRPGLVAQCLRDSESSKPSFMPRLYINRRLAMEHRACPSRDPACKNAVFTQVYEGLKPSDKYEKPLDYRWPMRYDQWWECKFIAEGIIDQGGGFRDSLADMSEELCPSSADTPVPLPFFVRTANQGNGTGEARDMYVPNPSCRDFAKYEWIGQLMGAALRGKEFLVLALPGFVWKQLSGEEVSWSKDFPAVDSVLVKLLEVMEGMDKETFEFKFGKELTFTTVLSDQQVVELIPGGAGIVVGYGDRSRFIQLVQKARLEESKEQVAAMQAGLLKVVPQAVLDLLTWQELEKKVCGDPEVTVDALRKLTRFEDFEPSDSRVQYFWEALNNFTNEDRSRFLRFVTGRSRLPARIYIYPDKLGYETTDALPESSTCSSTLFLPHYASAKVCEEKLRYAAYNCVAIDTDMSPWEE
# UniProt Q86VS8: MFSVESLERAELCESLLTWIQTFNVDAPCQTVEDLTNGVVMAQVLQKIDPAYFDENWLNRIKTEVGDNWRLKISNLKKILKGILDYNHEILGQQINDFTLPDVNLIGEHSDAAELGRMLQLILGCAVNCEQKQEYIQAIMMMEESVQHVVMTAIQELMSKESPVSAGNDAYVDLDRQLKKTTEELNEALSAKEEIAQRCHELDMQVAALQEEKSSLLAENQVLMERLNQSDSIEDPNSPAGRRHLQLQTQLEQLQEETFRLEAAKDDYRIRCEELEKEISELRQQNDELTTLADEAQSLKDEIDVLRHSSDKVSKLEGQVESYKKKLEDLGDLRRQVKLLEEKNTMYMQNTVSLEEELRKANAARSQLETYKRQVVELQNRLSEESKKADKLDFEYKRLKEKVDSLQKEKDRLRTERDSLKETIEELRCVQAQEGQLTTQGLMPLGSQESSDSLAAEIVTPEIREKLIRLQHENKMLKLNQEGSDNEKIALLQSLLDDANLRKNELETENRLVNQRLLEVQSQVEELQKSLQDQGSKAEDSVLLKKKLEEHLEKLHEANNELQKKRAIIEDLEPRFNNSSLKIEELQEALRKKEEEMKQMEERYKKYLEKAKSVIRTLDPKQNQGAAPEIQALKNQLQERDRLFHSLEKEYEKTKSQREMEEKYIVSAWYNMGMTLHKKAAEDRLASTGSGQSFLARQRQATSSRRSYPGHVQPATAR
# UniProt Q9UBI9: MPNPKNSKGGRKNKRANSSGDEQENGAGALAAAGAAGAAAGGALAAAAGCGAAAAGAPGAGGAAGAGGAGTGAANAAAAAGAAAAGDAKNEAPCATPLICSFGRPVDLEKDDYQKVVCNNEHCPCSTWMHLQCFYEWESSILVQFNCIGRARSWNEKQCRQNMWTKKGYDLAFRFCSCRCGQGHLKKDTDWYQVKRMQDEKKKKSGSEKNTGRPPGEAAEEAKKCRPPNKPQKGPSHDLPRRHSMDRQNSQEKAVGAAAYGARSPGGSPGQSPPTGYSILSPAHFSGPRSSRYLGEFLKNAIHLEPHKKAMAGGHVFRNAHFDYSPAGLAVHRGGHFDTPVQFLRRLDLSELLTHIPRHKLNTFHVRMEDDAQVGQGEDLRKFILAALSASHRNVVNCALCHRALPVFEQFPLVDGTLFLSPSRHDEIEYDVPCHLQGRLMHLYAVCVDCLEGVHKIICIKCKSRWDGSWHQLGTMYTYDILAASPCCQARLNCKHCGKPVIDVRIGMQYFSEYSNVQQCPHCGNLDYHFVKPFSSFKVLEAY
# UniProt P17174: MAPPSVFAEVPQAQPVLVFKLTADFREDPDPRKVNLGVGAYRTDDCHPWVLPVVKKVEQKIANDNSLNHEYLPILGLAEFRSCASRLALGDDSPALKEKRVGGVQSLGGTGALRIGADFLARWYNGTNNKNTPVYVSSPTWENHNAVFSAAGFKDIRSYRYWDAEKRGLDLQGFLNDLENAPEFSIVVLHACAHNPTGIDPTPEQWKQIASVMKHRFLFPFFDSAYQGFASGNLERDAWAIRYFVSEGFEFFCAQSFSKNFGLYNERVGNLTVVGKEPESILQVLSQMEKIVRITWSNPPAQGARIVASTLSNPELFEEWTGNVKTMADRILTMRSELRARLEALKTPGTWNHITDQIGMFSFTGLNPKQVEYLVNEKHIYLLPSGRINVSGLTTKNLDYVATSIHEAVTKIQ
# UniProt Q3SXM5: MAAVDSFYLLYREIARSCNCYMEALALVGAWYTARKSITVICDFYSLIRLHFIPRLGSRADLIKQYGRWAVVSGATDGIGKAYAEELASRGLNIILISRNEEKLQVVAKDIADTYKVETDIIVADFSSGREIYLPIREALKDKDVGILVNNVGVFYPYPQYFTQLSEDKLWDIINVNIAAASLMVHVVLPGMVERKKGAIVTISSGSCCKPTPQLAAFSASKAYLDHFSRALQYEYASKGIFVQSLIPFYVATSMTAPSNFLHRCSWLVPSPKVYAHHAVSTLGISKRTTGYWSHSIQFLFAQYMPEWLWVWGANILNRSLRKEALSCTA
# UniProt Q9NW75: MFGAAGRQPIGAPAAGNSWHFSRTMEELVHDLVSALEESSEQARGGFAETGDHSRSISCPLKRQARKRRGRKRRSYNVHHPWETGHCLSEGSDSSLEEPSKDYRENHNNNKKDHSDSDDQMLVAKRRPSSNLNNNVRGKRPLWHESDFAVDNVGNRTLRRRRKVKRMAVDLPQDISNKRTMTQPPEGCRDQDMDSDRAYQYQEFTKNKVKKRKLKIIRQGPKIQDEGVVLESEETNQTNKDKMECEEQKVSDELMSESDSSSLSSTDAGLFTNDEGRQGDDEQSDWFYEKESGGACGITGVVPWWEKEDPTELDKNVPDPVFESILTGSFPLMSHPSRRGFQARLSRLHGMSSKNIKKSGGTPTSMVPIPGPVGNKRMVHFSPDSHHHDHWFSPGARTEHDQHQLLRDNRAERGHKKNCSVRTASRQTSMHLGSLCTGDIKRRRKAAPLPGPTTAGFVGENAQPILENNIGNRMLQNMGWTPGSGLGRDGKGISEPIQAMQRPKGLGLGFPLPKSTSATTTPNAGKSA
# UniProt P13984, whole entry: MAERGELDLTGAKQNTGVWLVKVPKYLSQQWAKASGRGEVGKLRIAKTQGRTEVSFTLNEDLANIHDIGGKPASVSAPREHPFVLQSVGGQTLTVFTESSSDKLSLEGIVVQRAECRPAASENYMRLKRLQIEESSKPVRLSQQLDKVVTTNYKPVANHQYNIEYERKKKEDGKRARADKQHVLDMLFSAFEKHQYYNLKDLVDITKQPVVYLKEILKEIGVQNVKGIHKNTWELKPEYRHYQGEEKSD
# UniProt P35914: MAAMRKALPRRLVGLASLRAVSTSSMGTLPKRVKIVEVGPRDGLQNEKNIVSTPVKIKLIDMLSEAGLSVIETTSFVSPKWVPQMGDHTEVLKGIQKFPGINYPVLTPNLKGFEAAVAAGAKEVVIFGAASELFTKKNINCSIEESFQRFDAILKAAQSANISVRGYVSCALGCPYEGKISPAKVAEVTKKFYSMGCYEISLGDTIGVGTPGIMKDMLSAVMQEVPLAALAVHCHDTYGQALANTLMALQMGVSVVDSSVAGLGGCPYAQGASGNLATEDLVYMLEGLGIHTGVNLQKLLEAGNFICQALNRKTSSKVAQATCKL
# UniProt O15347: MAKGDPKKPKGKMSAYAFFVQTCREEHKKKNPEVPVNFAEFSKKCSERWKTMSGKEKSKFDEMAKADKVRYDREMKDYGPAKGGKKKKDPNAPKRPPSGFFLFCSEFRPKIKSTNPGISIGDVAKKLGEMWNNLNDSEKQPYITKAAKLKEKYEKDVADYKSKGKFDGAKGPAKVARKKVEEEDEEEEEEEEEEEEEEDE
# UniProt P62993, whole entry, looked up: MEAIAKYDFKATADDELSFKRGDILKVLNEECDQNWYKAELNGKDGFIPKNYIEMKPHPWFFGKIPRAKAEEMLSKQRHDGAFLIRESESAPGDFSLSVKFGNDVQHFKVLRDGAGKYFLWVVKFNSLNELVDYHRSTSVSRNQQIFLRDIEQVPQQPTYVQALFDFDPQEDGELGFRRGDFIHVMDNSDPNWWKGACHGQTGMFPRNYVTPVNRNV
# UniProt Q9NZ01: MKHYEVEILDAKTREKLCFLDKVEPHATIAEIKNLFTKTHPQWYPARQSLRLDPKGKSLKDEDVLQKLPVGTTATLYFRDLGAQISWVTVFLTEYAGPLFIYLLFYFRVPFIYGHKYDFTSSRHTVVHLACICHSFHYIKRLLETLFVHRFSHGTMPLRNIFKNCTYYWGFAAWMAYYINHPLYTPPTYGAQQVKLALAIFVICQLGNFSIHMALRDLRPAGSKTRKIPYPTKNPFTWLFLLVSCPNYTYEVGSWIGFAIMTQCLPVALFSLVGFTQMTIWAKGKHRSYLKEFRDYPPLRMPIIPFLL
# UniProt Q99729: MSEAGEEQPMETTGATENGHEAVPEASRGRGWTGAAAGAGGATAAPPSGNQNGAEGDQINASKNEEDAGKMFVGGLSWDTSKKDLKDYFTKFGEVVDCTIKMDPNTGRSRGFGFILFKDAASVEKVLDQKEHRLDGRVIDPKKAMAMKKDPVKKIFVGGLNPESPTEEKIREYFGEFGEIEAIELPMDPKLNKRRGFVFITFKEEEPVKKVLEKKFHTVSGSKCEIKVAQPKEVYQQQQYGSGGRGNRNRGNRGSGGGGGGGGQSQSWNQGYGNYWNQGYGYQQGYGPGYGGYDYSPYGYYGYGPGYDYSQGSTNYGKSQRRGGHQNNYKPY
# UniProt P07203, whole entry: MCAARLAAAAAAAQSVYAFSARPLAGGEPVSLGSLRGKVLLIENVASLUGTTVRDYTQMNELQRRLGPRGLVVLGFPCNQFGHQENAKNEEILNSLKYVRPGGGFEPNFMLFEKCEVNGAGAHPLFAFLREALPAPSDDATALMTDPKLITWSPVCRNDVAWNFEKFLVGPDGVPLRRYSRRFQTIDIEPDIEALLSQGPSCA
# UniProt Q5T3I0: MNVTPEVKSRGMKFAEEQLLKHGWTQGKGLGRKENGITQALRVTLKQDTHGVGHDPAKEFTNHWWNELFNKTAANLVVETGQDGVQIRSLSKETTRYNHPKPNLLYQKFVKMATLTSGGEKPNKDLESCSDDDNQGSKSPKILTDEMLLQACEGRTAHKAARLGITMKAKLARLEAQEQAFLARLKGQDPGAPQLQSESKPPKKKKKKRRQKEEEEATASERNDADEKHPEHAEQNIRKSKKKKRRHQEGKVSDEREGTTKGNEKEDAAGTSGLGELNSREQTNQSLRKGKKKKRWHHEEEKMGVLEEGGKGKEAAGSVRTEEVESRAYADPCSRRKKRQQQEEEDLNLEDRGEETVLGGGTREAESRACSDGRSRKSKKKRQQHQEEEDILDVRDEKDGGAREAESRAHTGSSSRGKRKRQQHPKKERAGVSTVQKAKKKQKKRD
# UniProt Q6PII5: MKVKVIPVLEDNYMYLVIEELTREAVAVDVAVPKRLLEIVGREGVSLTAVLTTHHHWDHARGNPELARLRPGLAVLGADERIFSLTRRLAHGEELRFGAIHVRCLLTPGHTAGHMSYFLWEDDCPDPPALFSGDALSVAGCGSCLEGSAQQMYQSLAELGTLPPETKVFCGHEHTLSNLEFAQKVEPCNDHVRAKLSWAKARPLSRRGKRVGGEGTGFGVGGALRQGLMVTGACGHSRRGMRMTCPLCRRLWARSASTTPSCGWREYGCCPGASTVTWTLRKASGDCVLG
# This is one part of the list.
# Compound: COc1ccc(Cn2ccc3cc(C)c(C(=O)NO)cc32)cc1
# Test: dose-dependent thermal stabilisation call (2D-TPP, DLPTP, 10% FDR) (binary (1 = stabilised)); higher = stabilised by the compound
# Conditions: system: HL-60 intact cells; concentration range 0.04-10 µM
# Protocol: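 2D thermal proteome profiling in intact HL-60 cells treated with BRD-3811 (0, 0.04, 0.29, 2, 10 uM) for 90 min at 37 C, then heated 3 min at one of 12 temperatures (42-63.9 C). Soluble protein was quantified by TMT10 MS. The value is the DLPTP call of the paper: dose-dependent thermal stabilisation over all temperatures at 10% FDR (F-test of a dose-response against a flat model); one experiment, one call per tested protein.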
row,Target,dose-dependent thermal stabilisation call
1,HDHD1A (UniProt Q08623),inactive: 0
2,HGF (UniProt P14210),inactive: 0
3,HAX1 (UniProt O00165),inactive: 0
4,GTF2A2 (UniProt P52657),inactive: 0
5,HECTD3 (UniProt Q5T447),inactive: 0
6,HOOK3 (UniProt Q86VS8),inactive: 0
7,HECA (UniProt Q9UBI9),inactive: 0
8,GOT1 (UniProt P17174),inactive: 0
9,HSDL1 (UniProt Q3SXM5),inactive: 0
10,GPS2 (UniProt Q13227),inactive: 0
11,GPATCH2 (UniProt Q9NW75),inactive: 0
12,GTPBP10 (UniProt A4D1E9),inactive: 0
13,GOLGA5 (UniProt Q8TBA6),inactive: 0
14,HMGN2 (UniProt P05204),inactive: 0
15,HEATR5B (UniProt Q9P2D3),inactive: 0
16,GTF2F2 (UniProt P13984),inactive: 0
17,HMGCL (UniProt P35914),inactive: 0
18,HNRNPA0 (UniProt Q13151),inactive: 0

# Given as tab-separated lines: part of the list above.
row	Target	dose-dependent thermal stabilisation call
1	HDHD1A (UniProt Q08623)	inactive: 0
2	HGF (UniProt P14210)	inactive: 0
3	HAX1 (UniProt O00165)	inactive: 0
4	GTF2A2 (UniProt P52657)	inactive: 0
5	HECTD3 (UniProt Q5T447)	inactive: 0
6	HOOK3 (UniProt Q86VS8)	inactive: 0
7	HECA (UniProt Q9UBI9)	inactive: 0
8	GOT1 (UniProt P17174)	inactive: 0
9	HSDL1 (UniProt Q3SXM5)	inactive: 0
10	GPS2 (UniProt Q13227)	inactive: 0

# Next part

row,Target,dose-dependent thermal stabilisation call
1,HMGB3 (UniProt O15347),inactive: 0
2,GTPBP8 (UniProt Q8N3Z3),inactive: 0
3,GPR107 (UniProt Q5VW38),inactive: 0
4,GRB2 (UniProt P62993),inactive: 0
5,HADHB (UniProt P55084),inactive: 0
6,GPSN2 (UniProt Q9NZ01),inactive: 0
7,HEATR7A (UniProt Q8NDA8),inactive: 0
8,HERC1 (UniProt Q15751),inactive: 0
9,HNRNPAB (UniProt Q99729),inactive: 0
10,HDAC3 (UniProt O15379),inactive: 0
11,GPX1 (UniProt P07203),inactive: 0
12,HELB (UniProt Q8NG08),inactive: 0
13,GPATCH4 (UniProt Q5T3I0),inactive: 0
14,HAGHL (UniProt Q6PII5),inactive: 0
15,HMMR (UniProt O75330),inactive: 0
16,HIST2H2BA,inactive: 0
17,HPDL (UniProt Q96IR7),inactive: 0
